PubChem BioAssay AID1259424 | University of Nebraska Medical Center – 2018

Screen: 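Rank knockdowns across the genome by resemblance to the KSR1 depletion profile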 (primary screen)
System: human HCT116 colon cancer cells
Reagents: siRNA pool against human genes, 50 nM
Read-out: 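Six signature mRNAs by branched-DNA multiplex assay, scaled to two housekeeping genes and non-targeting median, log2; matched to mean KSR1 knockdown profile by Pearson correlation and euclidean distance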
Reading the numbers: mean correlation with KSR1 profile: higher = expression change more like KSR1 knockdown; mean distance from KSR1 profile: higher = expression change less like KSR1 knockdown
In all, the deposit lists about 14,000 reagents; below is an unselected part. 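Higher correlation or smaller distance means closer resemblance to KSR1 loss; control wells, including KSR1 knockdowns, recur on many plates.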 Further read-outs or replicates are left out here. No sequences are given here. Not stated in the record: the time to read-out.

AFM → mean correlation with KSR1 profile: -0.171; mean distance from KSR1 profile: 1.66
NEUROG3 → mean correlation with KSR1 profile: -0.254; mean distance from KSR1 profile: 1.81
CD58 → mean correlation with KSR1 profile: 0.701; mean distance from KSR1 profile: 2.74
GPX3 → mean correlation with KSR1 profile: 0.733; mean distance from KSR1 profile: 2.33
RBM8A → mean correlation with KSR1 profile: 0.318; mean distance from KSR1 profile: 4.6
SLC9A2 → mean correlation with KSR1 profile: -0.452; mean distance from KSR1 profile: 1.77
TMEM216 → mean correlation with KSR1 profile: -0.191; mean distance from KSR1 profile: 2.22
DNPEP → mean correlation with KSR1 profile: 0.0687; mean distance from KSR1 profile: 3.58
RNF43 → mean correlation with KSR1 profile: -0.428; mean distance from KSR1 profile: 2.68
CYB5B → mean correlation with KSR1 profile: 0.344; mean distance from KSR1 profile: 2.42
FOXE3 → mean correlation with KSR1 profile: 0.36; mean distance from KSR1 profile: 1.87
TESMIN → mean correlation with KSR1 profile: 0.596; mean distance from KSR1 profile: 1.12
ZNF658 → mean correlation with KSR1 profile: -0.494; mean distance from KSR1 profile: 2.33
ALX3 → mean correlation with KSR1 profile: -0.000834; mean distance from KSR1 profile: 1.81
CRISPLD1 → mean correlation with KSR1 profile: 0.604; mean distance from KSR1 profile: 2.19
MCEE → mean correlation with KSR1 profile: 0.014; mean distance from KSR1 profile: 3.5
FEV → mean correlation with KSR1 profile: 0.249; mean distance from KSR1 profile: 4.51
CCT4 → mean correlation with KSR1 profile: 0.213; mean distance from KSR1 profile: 1.29
HEBP1 → mean correlation with KSR1 profile: -0.65; mean distance from KSR1 profile: 3.23
TCP10L → mean correlation with KSR1 profile: -0.697; mean distance from KSR1 profile: 2.92
HKDC1 → mean correlation with KSR1 profile: 0.801; mean distance from KSR1 profile: 1.34
ABHD13 → mean correlation with KSR1 profile: 0.659; mean distance from KSR1 profile: 1.95
THSD7A → mean correlation with KSR1 profile: -0.597; mean distance from KSR1 profile: 2.68
ZNF17 → mean correlation with KSR1 profile: 0.0447; mean distance from KSR1 profile: 2.2
RPA3 → mean correlation with KSR1 profile: -0.0493; mean distance from KSR1 profile: 2.25
U2SURP → mean correlation with KSR1 profile: -0.0165; mean distance from KSR1 profile: 3.75
BCAM → mean correlation with KSR1 profile: 0.0368; mean distance from KSR1 profile: 1.69
MT-CO1 → mean correlation with KSR1 profile: 0.222; mean distance from KSR1 profile: 1.36

Limited to “mean distance from KSR1 profile” (4 entries from above):
TMEM216 = 2.22
DNPEP = 3.58
RNF43 = 2.68
CYB5B = 2.42
